In patent US20090035303A1:
No constants are given. Whether binding was seen depends on the method and setting. Some entries that bind do so weakly or less than the wild type.

Protein sequences, listed by entry. Tags and fused reporters are not part of them. Lines headed by an entry give the natural chain unless they say otherwise; changes in a name come on top.
UniProt Q9H7B4: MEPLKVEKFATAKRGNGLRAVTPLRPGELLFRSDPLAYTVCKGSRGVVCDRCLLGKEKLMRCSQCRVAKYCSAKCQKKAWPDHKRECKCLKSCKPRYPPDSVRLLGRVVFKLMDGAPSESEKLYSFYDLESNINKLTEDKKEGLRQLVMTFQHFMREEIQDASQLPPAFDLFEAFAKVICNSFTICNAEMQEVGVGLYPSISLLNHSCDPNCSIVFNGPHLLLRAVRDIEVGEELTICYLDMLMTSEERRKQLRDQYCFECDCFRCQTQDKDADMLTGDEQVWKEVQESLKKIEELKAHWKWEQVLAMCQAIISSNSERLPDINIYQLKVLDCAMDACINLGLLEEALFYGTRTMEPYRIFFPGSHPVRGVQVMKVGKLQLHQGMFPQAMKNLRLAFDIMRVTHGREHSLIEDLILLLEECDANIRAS

Biological target: ZNFN3A1 (human) (UniProt Q9H7B4)
Assay: yeast two-hybrid screening

binding: binds
Substance: 90-kD heat shock protein (HSP90A) (from UniProt P07900 1-732)
